Results are given in words; binding and its absence hold for the method and conditions named. In cells and extracts the contact can be indirect. Some entries that bind do so weakly or less than the wild type. Where a sequence is shown, tags or fusion partners need not be part of it.

Amino acid sequences for entries named in this document (tags omitted).
UniProt P27487: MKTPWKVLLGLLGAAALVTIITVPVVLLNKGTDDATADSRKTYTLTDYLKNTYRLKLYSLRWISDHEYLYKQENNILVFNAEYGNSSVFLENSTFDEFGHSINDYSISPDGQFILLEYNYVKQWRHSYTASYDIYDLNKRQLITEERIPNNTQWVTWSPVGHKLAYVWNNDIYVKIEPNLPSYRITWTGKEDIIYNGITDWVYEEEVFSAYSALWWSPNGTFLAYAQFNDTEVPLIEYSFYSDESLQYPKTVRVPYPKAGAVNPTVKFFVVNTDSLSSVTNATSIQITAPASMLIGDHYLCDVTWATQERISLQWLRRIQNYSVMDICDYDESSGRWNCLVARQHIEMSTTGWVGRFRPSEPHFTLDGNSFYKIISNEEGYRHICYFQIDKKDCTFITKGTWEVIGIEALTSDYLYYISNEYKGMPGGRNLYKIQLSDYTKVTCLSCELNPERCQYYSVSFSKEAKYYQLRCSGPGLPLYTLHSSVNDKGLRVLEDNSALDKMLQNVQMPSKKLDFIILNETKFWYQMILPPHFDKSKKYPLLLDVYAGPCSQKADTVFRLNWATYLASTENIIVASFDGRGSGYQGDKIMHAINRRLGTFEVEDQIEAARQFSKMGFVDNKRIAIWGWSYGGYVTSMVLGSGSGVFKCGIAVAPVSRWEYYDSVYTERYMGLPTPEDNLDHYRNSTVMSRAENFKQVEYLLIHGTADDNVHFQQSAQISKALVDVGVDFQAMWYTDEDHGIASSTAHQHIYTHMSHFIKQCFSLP
UniProt Q8N608: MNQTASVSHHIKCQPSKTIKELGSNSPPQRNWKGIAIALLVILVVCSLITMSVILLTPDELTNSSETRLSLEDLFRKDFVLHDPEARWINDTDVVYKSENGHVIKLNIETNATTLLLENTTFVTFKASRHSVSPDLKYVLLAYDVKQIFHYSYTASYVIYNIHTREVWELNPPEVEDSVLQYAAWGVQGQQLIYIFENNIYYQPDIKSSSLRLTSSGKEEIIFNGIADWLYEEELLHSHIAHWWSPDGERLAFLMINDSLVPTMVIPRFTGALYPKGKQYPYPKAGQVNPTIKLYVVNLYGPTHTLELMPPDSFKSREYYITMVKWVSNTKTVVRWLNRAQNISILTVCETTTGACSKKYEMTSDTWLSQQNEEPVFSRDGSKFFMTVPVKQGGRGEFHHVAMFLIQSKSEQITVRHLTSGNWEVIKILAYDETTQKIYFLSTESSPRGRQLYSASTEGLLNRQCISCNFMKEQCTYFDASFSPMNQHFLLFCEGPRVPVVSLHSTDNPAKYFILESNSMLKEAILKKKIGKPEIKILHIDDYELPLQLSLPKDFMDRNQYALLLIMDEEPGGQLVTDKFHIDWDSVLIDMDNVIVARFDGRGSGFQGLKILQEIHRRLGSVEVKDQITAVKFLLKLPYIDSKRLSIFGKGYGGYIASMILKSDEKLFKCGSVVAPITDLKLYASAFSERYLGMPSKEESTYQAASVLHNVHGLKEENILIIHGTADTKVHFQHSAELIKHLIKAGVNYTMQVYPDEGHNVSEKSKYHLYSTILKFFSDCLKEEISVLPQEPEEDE

Assay [1] has as its target N-terminally Flag-tagged human DPP4 (human) (UniProt P27487). The experiment in a line: co-IP; HEK293 cells co-transfected with Flag-tagged DPP cDNA (8 ug) and Myc-Kv4.3 cDNA (2 ug); extract in 20 mM Tris-HCl pH 7.4, 0.2 M NaCl, 1% Triton X-100, 1 mM EDTA; precipitation with anti-Flag antibody-conjugated resin, immunoblot.
The target in assay [2] is N-terminally Flag-tagged human DPP10 (human) (UniProt Q8N608). Described as above.

B1: Myc-tagged rat Kv4.3 (protein, UniProt Q62897 1-655)
chain: MAAGVAAWLPFARAAAIGWMPVANCPMPLAPADKNKRQDELIVLNVSGRRFQTWRTTLERYPDTLLGSTEKEFFFNEDTKEYFFDRDPEVFRCVLNFYRTGKLHYPRYECISAYDDELAFYGILPEIIGDCCYEEYKDRKRENAERLMDDNESENNQESMPSLSFRQTMWRAFENPHTSTLALVFYYVTGFFIAVSVITNVVETVPCGTVPGSKELPCGERYSVAFFCLDTACVMIFTVEYLLRLFAAPSRYRFIRSVMSIIDVVAIMPYYIGLVMTNNEDVSGAFVTLRVFRVFRIFKFSRHSQGLRILGYTLKSCASELGFLLFSLTMAIIIFATVMFYAEKGSSASKFTSIPASFWYTIVTMTTLGYGDMVPKTIAGKIFGSICSLSGVLVIALPVPVIVSNFSRIYHQNQRADKRRAQKKARLARIRVAKTGSSNAYLHSKRNGLLNEALELTGTPEEEHMGKTTSLIESQHHHLLHCLEKTTGLSYLVDDPLLSVRTSTIKNHEFIDEQMFEQNCMESSMQNYPSTRSPSLSSHSGLTTTCCSRRSKKTTHLPNSNLPATRLRSMQELSTIHIQGSEQPSLTTSRSSLNLKADDGLRPNCKTSQITTAIISIPTPPALTPEGESRPPPASPGPNTNIPSITSNVVKVSVL
As to B1, the binding result in assay [1] is listed as “no binding”; in assay [2], “binds”.

The record behind these values is publication PMC4873792.
